Test results published in PubChem BioAssay AID1347423 (Functional Genomics Laboratory (NCATS/FGL), 2020).
Among all 52,000 sequences or so, about 210 (0.4%) were called active.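 The calls were made as follows: active = gene whose silencing raises cell survival under the drug, median off-target-corrected z-score across its silencing RNAs 2 or more; inactive = the rest.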 The list shows a part of the results.

Assay: Resistance to Poly (ADP-Ribose) Polymerase inhibitor: Gene Identification via Genome-wide siRNA Screen
Conditions: mouse BRCA2 R2336H ES cells, olaparib, CellTiter-Glo viability; active compounds read high
Procedure, shortened: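 Genome-wide siRNA screen (3 siRNAs/gene, 20 nM) in mouse ES cells carrying hypomorphic BRCA2 R2336H; olaparib 500 nM added 48 h post-transfection, CellTiter-Glo viability 72 h later. Normalized to plate-median negative control; MAD z-scores, gene median, seed-adjusted.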

Sequence | z-score
GGCUCAGUUUCGAAUUAAATT against Commd5 | inactive: 0.577
GCAAGUUGUCAAAUCUAAATT against Tm4sf13 | inactive: 0.949
GGGACAAGUGUUCUACUAUTT against Msra | inactive: 0.0589
GUGGACAAGACCUUCCUGUTT against Cklfsf5 | inactive: 0.774
GGCCUUAGGAAAAAAAAAGTT against Bad | inactive: 0.991
GCACUCCACUUUUGUACACTT against Cdc42ep5 | inactive: 1.06
GGAUCAAAUUAUGUCUUUGTT against Chuk | inactive: 1.01
GGAGGAGACAGAGAUCAUUTT against Ruvbl2 | inactive: -2.11
CCUGGAUGCAUGGUUAUUATT against F730023N20 | inactive: -0.187
GCUAAGUUGGAAUUUCCACTT against 2500003M10Rik | inactive: 0.633
CGAGUAGAGGACUUCUACATT against Olfml2a | inactive: -1.02
GGUUAUCCGUGGUAACCAUTT against A130052D22 | inactive: 0.297
GGUUGUGGUCUUUGUUCUGTT against Olfr923 | inactive: 1.36
CGUGAUGAGUGAAAAUGAUTT against Cd34 | inactive: -0.184
CCUGAUGUUCUCCUGUCUATT against Xcr1 | inactive: 0.519
GCUUGGUAAAGAAAAACGATT against Xrcc5 | inactive: 0.297
CCUGCACCAUAAGAAAUCUTT against Gm784 | inactive: 3.4
GGAAGACUCACGGCUCAAATT against 1810023B24Rik | inactive: -1.36
GGAGCUCUGUGAAUCUCUUTT against 2810433K01Rik | inactive: -2.04
GCCCAAAGUACAUUUGGUGTT against 2810427I04Rik | inactive: 0.759
GGCCGUGGAAUUUUAGACATT against Mtrf1 | inactive: 1.15
CGACAUUGUGAUUAUCCAGTT against NE | inactive: -0.584

Sequence | z-score
GGAACAUGAACACCAUCUGTT against Klk10 | inactive: -0.507
CCAAGAUCCAGUUCAGUUATT against Oaz3 | inactive: 0.335
GGGACUAACCUACUUAAUGTT against BC019776 | inactive: 0.393
GCUAUCUCCACUCUGAGUCTT against 4633402N23Rik | inactive: -1.4
GGCCAGAGCAUUUUCUUCATT against AI449441 | inactive: 0.469
GGCGAGCUUAUCCAUGAUUTT against Ga17 | inactive: -2.2
GGUGACAGUUGUUCACAAATT against 4933405O20Rik | inactive: 0.0458
GGCUUUUUGUCUAACAAGUTT against 2410002O22Rik | inactive: -0.36
GGCACUUUGGAUUAAUUGUTT against Pole4 | inactive: 0.929
GGACAAGCAAGAGAUGCUUTT against Atp6v1h | inactive: 0.37
GGUAGUGUUAACUAUAUGGTT against Hmgb3 | active: 1.85
GGCAUCCAACUUCUUUAUGTT against Mrgpra7 | inactive: 0.0689
GCAGAAGAUAGAGUAUGCATT against Myo1h | inactive: 1.22
GGACUUAGCGGAUAAUGACTT against Nlgn3 | inactive: 1.95
GGUGGACUCAUUCUAAUACTT against Nudt1 | inactive: 0.231
GGAGUUCAGGUAUCCCUGATT against D7Ertd156e | inactive: -2.19
GGGCAUAUAUUCAAGACUUTT against BC047207 | inactive: -0.791
GUGCCCAGAGUCCUAUCCATT against Sprr2j | inactive: -1.8
GGCUCAAAUACAGGAAAUUTT against BC018222 | inactive: -0.662
GCAUUGUCAUGAUACAACATT against Fem1b | inactive: 0.992
GGGACAAAUCUUUUGAUUATT against Impact | inactive: -0.97
CCUCUGAUCGAAAGUCUAATT against Ccdc9 | inactive: -2.7

Sequence | z-score
GGAAUAUACAGUGAAGACATT against Sycp1 | inactive: 0.132
CCUUUGAAAAAGCUUGCCATT against Ifrg15 | inactive: 0.381
CGGAGAACGACAUUUACAATT against Hnrpf | inactive: 0.456
GGUCCACAGUACCACAUAATT against 5830405N20Rik | inactive: -2.65
CCUAAUAUAGUUGAGGAUGTT against Ncoa6ip | inactive: -0.894
GGGCGACUUAUUUUUUGUUTT against Zfp111 | inactive: 0.528
GCAAGAUACUGACCACUAGTT against 4631426H08Rik | inactive: 1.31
GCUAUUUUGGGACGAGUCATT against Col13a1 | inactive: -2.48
GGACUUCAUCAAAGUCUUATT against Cyp11a1 | inactive: -1.45
GGACAUCACUUGGAGACGATT against Capn10 | inactive: -0.766
GGUUAAGAACUGUUCAGAUTT against Ifnar2 | inactive: 0.0293
GGUCAUCUCCAAACCCUCCTT against Rbpsuh | inactive: -0.0176
GGAGCUGAAUCAUUAUCUGTT against Rabep1 | inactive: 0.283
GGAAAAUUAUCCUAGUGCUTT against Serpinb2 | inactive: -0.0948
CCGGUGACUUGACUUACUATT against Man1b | inactive: 0.386
GGAAGUCGACCUUAUAGUUTT against 4930507C10Rik | inactive: -0.49
GAUACUGUCUACAAGCUUCTT against BC088983 | inactive: -0.513
GGCUGUACAGUCAUGCAAGTT against Adamts5 | active: 2.62
GAUGACUCGGGUCCGAGUATT against Mrpl14 | inactive: -0.516
GCUUCAAGAACGAACUGUUTT against Bmp10 | inactive: 0.0167
CGAGGCAAGCGAUGUCGAUTT against AI790326 | inactive: 0.461
GGCUACGACAGAAAAGACUTT against Ict1 | inactive: 0.689
